The assay deals with T1, UniProt Q9UI30 and related entries.
T1 sequence (whole entry): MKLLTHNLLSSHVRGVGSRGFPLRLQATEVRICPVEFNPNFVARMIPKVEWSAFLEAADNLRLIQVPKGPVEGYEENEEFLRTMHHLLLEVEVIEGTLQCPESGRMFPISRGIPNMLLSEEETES
Nature of the assay: NP40-soluble protein abundance relative to vehicle (solubility fold change) (ratio); higher = more soluble protein in presence of GTP. The method, then: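 Solubility proteome profiling in Jurkat crude lysate. Lysate was treated with Mg-GTP (0.1-10 mM) for 10 min at room temperature and 3 min at 37 °C, then solubilised with 0.8% NP40 and benzonase, followed by ultracentrifugation. Proteins were quantified by TMT10 LC-MS/MS; the value is the NP40-soluble abundance relative to the NP40-processed vehicle, from 3 independent experiments.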

± gives the standard deviation of the averaged measurements. The list shows a part of the results.

Consider `Nc1nc2c(ncn2[C@@H]2O[C@H](COP(=O)(O)OP(=O)(O)OP(=O)(O)O)[C@@H](O)[C@H]2O)c(=O)[nH]1` [guanosine triphosphate], for which the NP40-soluble protein abundance is, setting by setting: (concentration: 0.1mM) 1 ± 0.13; (concentration: 0.5mM) 0.979 ± 0.088; (concentration: 1mM) 1.08 ± 0.13; (concentration: 2mM) 1.08 ± 0.13; (concentration: 4mM) 1.03 ± 0.15; (concentration: 6mM) 1.07 ± 0.12. For the same compound, the NP40-soluble protein abundance by setting is: (concentration: 8mM) 0.957 ± 0.14; (concentration: 10mM) 1.04 ± 0.1.
